Data published in the supplement of paper PMC12889115.
This is one part of the list. Values are raw readings; no control value is given beside them.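 In the initial screen, polymyxin B was used at a concentration that permeabilizes Salmonella's outer membrane but not its inner membrane. Maximum growth was set by DMSO wells with or without polymyxin B. Since plates varied, data were ranked per plate, and compounds giving the lowest OD600 advanced as hits.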

Tested on: Salmonella enterica serovar Typhimurium SL1344
Assay: bacterial growth OD600 after 18 h with compound and polymyxin B; higher = more bacterial growth (less inhibition)
Details: 50 µM, Mueller-Hinton broth

SMILES	bacterial growth OD600 (polymyxin B 0.75 µg/mL)	bacterial growth OD600 (polymyxin B 1 µg/mL)
CCN1CCN(C2(C(=O)NC(C)c3ccc(F)cc3)Cc3ccccc3C2)CC1 (stereo not given)	0.829	
COCCN(Cc1c[nH]c(C)n1)CC1CCCN(C2Cc3ccccc3C2)C1 (stereo not given)	0.775	
COc1cccc(CN2CCN(Cc3cccc4c3OCO4)CC2CCO)c1 (stereo not given)		0.799
Cc1nc(N2CCC(C(=O)NC3CCCCCCC3)CC2)nc2cc(S(C)(=O)=O)ccc12	0.848	
CCc1csc(CCNc2ccc(-c3nc(C4CC4)no3)cn2)n1		0.814
COC(=O)C1CCN(Cc2ccc3c(c2)CN(C(=O)c2cnn(Cc4ccccc4)c2)CCO3)CC1	0.895	
COc1cc(C(=O)N2CCCC(C(=O)c3ccc(Cl)cc3C)C2)cc(OC)c1OC (stereo not given)		0.88
CCCn1cc(CN2C[C@H]3OC(=O)N(Cc4ccccn4)[C@H]3C2)c(C)n1	0.886	
CCCCN(Cc1ccccc1)C(=O)CCC1(Cc2ccc(OC)cc2F)CCC(=O)N1 (stereo not given)	0.624	
O=C(N[C@H]1CCCCNC1=O)c1ccc2oc(-c3cccc(F)c3)nc2c1	0.795	
Fc1cccc(C2CCN(Cc3ccc4nccnc4c3)c3ccccc3S2)c1 (stereo not given)	0.02	
CC(C)CN(C)c1ccc(C(=O)N2CCC(Oc3cccnc3)CC2)cn1		0.816
Cn1ccnc1CN1CCN(C(=O)c2cc(COc3ccccc3)on2)CC1		0.984
COc1cc(CNC2CCCCCCC2)ccc1OCC(O)CN1CCC(O)CC1 (stereo not given)	0.854	
O=C(NCCc1cccnc1)c1cc(COc2ccc3c(c2)OCO3)[nH]n1		1.15
O=C(c1ccccc1OC1CCN(Cc2ccc3c(c2)OCCO3)CC1)N1CCCC1		1.25
CO[C@H]1[C@H](NC(=O)c2ccncc2)c2ccccc2C12CCN(C(=O)c1ccc(C(C)=O)cc1)CC2	0.779	
CN(Cc1ccncn1)C(=O)c1csc2nc(-c3ccc(Cl)cc3)cn12	0.739	
Cc1cc2nc(N3CCC(C(=O)NC4CCOC(C)(C)C4)CC3)nc(C)c2cc1C (stereo not given)	0.836	
CCOC(=O)C1(CCc2ccccc2)CCN(C(=O)c2ccc(OC)c(F)c2)CC1		0.804
CCOC(=O)C1(Cc2ccc(F)cc2F)CCCN(C(=O)CCn2nccc2C)C1 (stereo not given)		1.31
CC(=O)c1ccc(OCc2cc(C(=O)N(C)Cc3cc(C)[nH]n3)no2)cc1		1.01
COc1ccc(CC2(CCC(=O)N(C)CCc3ccc(OC)c(OC)c3)CCC(=O)N2)c(F)c1 (stereo not given)	0.822	
Cc1oc(-c2ccccc2NS(C)(=O)=O)nc1CN(C)Cc1ccc(OC(F)(F)F)cc1	0.548	
COc1cccc(CN2CCC(C(=O)Nc3ccc(Oc4cccnc4)cc3)CC2)c1		0.674
O=C(CCc1ccccc1)C(=O)N1CCC(n2nccc2NC(=O)C2CCOC2)CC1 (stereo not given)		1.14
CCc1ocnc1C(=O)NCc1cccnc1-n1cnc2ccccc21	0.915	
COc1ccc(CCNC(=O)CCC2(Cc3ccc(SC)cc3)CCC(=O)N2)cc1OC (stereo not given)	0.827	
COc1ccc(CC2(CCC(=O)NCC3(N4CCOCC4)CCCCCC3)CCC(=O)N2)c(F)c1 (stereo not given)	0.837	
C=CC[C@@H]1CC=C[C@@H](C)N1C(=O)CCCn1nnnc1CN1CCC(C)CC1	0.644	

Two of these compounds in another layout.
SMILES | bacterial growth OD600 (polymyxin B 0.75 µg/mL) | bacterial growth OD600 (polymyxin B 1 µg/mL)
CCCCN(Cc1ccccc1)C(=O)CCC1(Cc2ccc(OC)cc2F)CCC(=O)N1 (stereo not given) | 0.624 | 
O=C(N[C@H]1CCCCNC1=O)c1ccc2oc(-c3cccc(F)c3)nc2c1 | 0.795 | 
